Experimental data from patent US20230055961A1, “PENTAFLUOROBENZENESULFONAMIDE DERIVATIVES AND USES THEREOF” (Dunad Therapeutics Ltd., priority 2019, published 2023).
At least one compound was matched to its structure with a doubt left.

By UniProt entry, the sequences of proteins in these tests, tags left out. Residues count along the entry.
UniProt Q06187, 402-655: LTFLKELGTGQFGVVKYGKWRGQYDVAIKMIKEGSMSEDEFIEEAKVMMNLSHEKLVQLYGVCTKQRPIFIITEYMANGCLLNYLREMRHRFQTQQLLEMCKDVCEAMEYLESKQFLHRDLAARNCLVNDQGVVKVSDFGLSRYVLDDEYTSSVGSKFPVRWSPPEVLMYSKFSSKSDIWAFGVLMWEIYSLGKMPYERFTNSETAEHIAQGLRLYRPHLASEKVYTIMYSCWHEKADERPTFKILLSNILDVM

Tests used:
[1] = biological target: T1, His-tagged BTK kinase domain (Homo sapiens, UniProt Q06187); assay: Mass spectral analysis of tryptic digest of His-tagged BTK kinase domain (MSMS of modified peptides); assay type: binding; conditions: 10 μM compound, 45 min; for amino acid of BTK modified by one equivalent of compound / observed mass of modified tryptic peptide: 10 μM His-BTK KD, tryptic digest MSMS; for C481 labelled by test compound (tryptic digest peptide): cysteine 481, 10 μM BTK KD
T1 construct: pET-28b(+)-BTK (402-655) vector; made in house; host or cells: E. coli BL21 (DE3) RILP
Experimental: A protein kinase that is inhibited by compound and/or pharmaceutically acceptable salt of the present disclosure may be subjected to mass spectral analysis to assess the formation of permanent, irreversible covalent adducts. […] Such methods identify permanent, irreversible covalent protein adducts by observing a mass peak that corresponds to the mass of a control sample plus the mass of an irreversible adduct.
The starter cultures were incubated with shaking at 37° C. until cloudy and used to inoculate 1 L of Super broth containing same concentrations of kanamycin and chloramphenicol, 10 mM MgSO4, 5 mM CaCl2), and 0.1% (w/v) glucose. The cultures were incubated under similar conditions to an OD600 of 0.6-0.8. Before induction with 0.5 mM IPTG, the temperature was reduced to 16° C. The cells were harvested by centrifugation following approximately 18 h and frozen in a −80° C. freezer until use.
Cells were thawed in lysis buffer (50 mM HEPES [pH 7.6], 300 mM NaCl, 10 mM MgCl2, 10% [v/v] glycerol, 0.1 mg/mL lysozyme, 50 μg/mL DNase I, and protease inhibitors). Cells were sonicated (30 s on, 60 s off) for 3 repeating cycles. The cell lysates were cleared by centrifugation at 4° C. […] This eluant was cleaved with Ulp1 protease and loaded onto a S200 Superdex FPLC column (GE healthcare) pre-equilibrated with 20 mM HEPES pH 7.4, 150 mM NaCl, and 10% [v/v] glycerol. Pure fractions of His-tagged BTK kinase domain, as judged by SDS-PAGE, were pooled and concentrated using Amicon 10 kDa cutoff concentrators and after aliquoting stored at −80 C until use.
After the incubation time, the reactions were quenched by acetone precipitation and the pellet was re-dissolved in 8 M Urea. The protein was then reduced (5 mM DTT), alkylated (15 mM iodoacetamide) and digested (1 μg trypsin at 37° C. for 4 hours). The digest was then stopped by addition of trifluoroacetic acid, and peptides were removed from gel band by sonicating with increasing amounts of acetonitrile (0%, 30%, & 60%). Peptides were then purified using C18 ziptips, spotted on the MALDI target plate with a-cyano-4-hydroxycinnamic acid as the desorption matrix (10 mg/ml in 0.1% TFA: Acetonitrile 50:50), and analyzed in reflectron mode.

[2] = biological target: FGFR; assay: In vitro kinase inhibition studies (Table 13), FGFR; assay type: biochemical

Row | Structure (SMILES) | amino acid of BTK modified by one equivalent of compound [1] | observed mass of modified tryptic peptide [1] | C481 labelled by test compound (tryptic digest peptide) [1] | IC50 [2]
1 | COCCOc1ccc(Nc2ncc(F)c(Nc3ccc(NS(=O)(=O)c4c(F)c(F)c(F)c(F)c4F)cc3)n2)cc1 [Compound 5-14, 2,3,4,5,6-pentafluoro-N-(4-((5-fluoro-2-((4-(2-methoxyethoxy)phenyl)amino)pyrimidin-4-yl)amino)phenyl)benzenesulfonamide] | Cys-481 | 3107.4 Da | ✓ | 
2 | COCCOc1ccc(Nc2ncc(F)c(Nc3cccc(NS(=O)(=O)c4c(F)c(F)c(F)c(F)c4F)c3)n2)cc1 [Compound 5-15, 2,3,4,5,6-pentafluoro-N-(3-((5-fluoro-2-((4-(2-methoxyethoxy)phenyl)amino)pyrimidin-4-yl)amino)phenyl)benzenesulfonamide] | Cys-481 | 3107.4 Da | ✓ | 
3 | C=CC(=O)N1CCC[C@@H](n2nc(-c3ccc(Oc4ccccc4)cc3)c3c(N)ncnc32)C1 [Ibrutinib, reference compound] |  |  |  | 0.1 to 10 nM
